This is one part of the list.
Legend:
Experiment in all cases: log2 fold change, soluble protein after heating vs DMSO (PISA); higher = thermal stabilisation; K562 lysate, 10 uM; active = over 0.2 and 3.5 SD of the protein, either way, in both replicates (recomputed)
[1] = compound: C#Cc1cccc(Nc2ncnc3cc(OCCOC)c(OCCOC)cc23)c1 [erlotinib]
Method in brief: (§1)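 Pellets of K562 cells were dounce-homogenised in PBS pH 7.4 with 1 mM MgCl2, and the crude extract was held at 1 mg/mL protein for a 30 min treatment with 10 μM compound. Aliquots were heated for 3 min over 48°C-58°C and pooled before NP-40 was added to 0.5% at 4°C. The supernatant from 21,000xg for 90 min was quantified by TMTpro 16plex LC-MS/MS with channel sums equalised. Values are reported from duplicates as log-two fold change in thermal stability relative to solvent controls.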

Amino acid sequences for entries named in this document (tags omitted). A change or cut given only in a name is not applied to a line headed by its entry.
UniProt Q9NPC7: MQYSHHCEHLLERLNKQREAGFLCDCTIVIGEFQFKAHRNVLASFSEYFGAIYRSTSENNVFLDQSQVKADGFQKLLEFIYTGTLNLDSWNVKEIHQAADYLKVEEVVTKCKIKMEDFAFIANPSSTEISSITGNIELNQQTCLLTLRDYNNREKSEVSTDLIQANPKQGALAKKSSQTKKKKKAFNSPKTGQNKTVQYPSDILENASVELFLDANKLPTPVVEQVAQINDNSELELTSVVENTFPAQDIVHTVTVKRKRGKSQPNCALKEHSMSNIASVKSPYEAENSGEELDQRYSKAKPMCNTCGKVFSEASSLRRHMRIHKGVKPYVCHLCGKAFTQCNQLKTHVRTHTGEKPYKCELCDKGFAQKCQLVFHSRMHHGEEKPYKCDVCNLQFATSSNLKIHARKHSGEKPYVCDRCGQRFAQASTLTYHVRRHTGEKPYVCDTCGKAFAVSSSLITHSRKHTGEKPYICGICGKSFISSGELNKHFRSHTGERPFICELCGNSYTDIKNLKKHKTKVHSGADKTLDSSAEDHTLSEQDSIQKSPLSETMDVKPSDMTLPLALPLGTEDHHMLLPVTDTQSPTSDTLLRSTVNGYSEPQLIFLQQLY
UniProt Q15742: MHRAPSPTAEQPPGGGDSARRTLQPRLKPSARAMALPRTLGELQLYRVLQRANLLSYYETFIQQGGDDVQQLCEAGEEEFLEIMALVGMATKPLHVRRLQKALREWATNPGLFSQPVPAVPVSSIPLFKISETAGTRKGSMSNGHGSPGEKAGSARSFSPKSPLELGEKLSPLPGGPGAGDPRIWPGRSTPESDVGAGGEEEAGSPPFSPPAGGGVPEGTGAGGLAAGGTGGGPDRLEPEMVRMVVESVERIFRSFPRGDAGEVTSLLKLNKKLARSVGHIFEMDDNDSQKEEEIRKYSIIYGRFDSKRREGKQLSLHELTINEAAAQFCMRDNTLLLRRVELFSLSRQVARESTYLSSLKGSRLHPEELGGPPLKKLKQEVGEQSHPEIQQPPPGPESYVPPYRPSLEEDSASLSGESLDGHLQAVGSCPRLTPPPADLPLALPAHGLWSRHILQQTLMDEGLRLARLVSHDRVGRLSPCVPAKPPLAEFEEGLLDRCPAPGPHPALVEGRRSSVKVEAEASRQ
UniProt Q8NFP9, whole entry, looked up: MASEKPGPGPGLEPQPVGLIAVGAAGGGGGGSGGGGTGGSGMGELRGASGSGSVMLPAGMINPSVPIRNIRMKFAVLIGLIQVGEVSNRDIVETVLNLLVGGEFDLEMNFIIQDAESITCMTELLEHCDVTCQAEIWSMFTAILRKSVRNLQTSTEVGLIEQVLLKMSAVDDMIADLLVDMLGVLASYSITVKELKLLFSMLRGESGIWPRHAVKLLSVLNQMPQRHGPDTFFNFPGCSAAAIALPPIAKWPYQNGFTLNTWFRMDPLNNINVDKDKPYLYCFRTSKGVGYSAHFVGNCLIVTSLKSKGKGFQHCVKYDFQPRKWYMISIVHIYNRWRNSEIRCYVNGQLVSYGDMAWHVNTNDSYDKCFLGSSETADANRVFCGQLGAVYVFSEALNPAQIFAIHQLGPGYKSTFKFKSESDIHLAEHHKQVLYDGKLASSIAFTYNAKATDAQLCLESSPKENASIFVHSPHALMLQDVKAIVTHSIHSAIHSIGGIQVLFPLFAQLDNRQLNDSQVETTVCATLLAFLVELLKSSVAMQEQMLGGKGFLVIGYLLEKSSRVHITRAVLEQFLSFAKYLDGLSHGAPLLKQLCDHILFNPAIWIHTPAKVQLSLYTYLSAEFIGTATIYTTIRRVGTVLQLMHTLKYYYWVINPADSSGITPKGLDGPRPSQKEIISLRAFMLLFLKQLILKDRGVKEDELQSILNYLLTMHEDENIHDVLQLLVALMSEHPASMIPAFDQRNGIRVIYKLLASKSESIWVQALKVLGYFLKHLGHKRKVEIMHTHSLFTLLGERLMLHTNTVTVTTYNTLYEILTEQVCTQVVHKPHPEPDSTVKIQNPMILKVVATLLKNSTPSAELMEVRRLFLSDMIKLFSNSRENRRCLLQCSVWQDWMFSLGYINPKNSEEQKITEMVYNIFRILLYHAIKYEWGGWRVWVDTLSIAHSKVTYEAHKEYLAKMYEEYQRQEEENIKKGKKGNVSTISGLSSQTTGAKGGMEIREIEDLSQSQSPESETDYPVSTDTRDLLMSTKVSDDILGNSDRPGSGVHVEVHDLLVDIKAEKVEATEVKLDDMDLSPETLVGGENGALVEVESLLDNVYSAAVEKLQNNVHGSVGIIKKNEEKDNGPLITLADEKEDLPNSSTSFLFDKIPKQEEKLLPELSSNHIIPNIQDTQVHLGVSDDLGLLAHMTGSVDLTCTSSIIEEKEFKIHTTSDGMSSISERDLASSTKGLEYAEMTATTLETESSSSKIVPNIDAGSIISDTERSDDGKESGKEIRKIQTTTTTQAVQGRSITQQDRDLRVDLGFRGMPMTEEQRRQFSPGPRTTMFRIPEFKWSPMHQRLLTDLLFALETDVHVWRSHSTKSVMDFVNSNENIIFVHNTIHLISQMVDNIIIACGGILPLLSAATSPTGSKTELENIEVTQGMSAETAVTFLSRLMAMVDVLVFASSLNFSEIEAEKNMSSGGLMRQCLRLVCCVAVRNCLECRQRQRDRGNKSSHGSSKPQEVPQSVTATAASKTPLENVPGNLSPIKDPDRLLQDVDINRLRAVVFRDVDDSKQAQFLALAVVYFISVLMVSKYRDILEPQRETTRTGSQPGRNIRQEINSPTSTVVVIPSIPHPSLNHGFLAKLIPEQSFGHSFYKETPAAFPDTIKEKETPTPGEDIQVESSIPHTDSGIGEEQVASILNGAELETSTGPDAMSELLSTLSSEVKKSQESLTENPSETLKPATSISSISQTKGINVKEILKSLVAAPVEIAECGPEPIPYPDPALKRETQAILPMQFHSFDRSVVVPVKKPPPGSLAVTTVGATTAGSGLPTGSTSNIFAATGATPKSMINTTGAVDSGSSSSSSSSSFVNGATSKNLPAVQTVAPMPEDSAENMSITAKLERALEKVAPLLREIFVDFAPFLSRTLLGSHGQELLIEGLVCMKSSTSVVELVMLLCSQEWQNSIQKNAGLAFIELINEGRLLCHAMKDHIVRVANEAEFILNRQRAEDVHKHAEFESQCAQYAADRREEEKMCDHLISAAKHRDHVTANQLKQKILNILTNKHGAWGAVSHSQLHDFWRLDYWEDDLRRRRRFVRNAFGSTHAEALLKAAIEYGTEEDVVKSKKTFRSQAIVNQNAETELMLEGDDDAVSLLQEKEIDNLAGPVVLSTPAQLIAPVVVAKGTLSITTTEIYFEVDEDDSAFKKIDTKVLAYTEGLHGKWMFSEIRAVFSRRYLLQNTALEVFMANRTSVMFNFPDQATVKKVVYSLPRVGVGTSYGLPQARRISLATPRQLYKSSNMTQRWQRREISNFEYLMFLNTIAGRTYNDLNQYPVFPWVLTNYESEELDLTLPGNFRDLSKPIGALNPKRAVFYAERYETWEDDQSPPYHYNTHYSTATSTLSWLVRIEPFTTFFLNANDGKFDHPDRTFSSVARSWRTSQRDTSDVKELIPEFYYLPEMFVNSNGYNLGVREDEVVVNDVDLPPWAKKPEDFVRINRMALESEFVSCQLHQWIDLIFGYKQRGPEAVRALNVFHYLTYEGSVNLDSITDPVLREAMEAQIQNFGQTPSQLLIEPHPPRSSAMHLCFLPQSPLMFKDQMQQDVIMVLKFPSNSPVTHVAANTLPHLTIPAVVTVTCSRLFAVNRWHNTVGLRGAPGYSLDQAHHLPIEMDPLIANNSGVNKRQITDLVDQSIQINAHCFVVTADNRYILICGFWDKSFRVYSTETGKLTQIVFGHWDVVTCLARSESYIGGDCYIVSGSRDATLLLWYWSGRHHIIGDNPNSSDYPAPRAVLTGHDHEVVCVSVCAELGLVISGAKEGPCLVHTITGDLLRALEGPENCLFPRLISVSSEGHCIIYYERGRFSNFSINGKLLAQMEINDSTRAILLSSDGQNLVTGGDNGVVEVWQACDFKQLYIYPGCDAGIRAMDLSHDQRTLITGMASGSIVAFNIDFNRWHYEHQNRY
UniProt P60660, whole entry, looked up: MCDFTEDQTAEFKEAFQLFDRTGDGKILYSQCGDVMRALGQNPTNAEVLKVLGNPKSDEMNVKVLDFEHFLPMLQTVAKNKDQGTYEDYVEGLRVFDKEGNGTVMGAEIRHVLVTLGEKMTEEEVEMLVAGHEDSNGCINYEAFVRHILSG
UniProt Q69YL0: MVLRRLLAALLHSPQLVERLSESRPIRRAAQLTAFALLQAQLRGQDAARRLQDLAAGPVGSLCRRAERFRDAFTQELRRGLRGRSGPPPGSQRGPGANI
UniProt G3V1V0: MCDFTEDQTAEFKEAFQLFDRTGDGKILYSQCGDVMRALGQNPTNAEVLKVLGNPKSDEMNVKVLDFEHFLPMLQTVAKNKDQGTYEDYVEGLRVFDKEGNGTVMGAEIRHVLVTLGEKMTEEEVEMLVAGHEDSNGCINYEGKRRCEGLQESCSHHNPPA
UniProt P52298: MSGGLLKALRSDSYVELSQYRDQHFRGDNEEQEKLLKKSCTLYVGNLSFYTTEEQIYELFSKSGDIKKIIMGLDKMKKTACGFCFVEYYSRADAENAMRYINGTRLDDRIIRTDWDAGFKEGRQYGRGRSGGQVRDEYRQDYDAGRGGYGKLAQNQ
UniProt P53602: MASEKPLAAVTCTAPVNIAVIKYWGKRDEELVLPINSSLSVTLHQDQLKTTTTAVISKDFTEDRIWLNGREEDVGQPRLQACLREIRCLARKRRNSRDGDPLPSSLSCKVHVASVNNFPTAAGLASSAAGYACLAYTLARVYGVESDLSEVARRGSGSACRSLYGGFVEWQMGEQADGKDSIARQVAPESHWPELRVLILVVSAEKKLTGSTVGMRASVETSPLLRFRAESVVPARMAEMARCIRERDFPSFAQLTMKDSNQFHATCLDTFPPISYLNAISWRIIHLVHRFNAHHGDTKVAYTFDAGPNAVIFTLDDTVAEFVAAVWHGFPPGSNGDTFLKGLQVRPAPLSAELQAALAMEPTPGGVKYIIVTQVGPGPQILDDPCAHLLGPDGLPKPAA
UniProt P10244: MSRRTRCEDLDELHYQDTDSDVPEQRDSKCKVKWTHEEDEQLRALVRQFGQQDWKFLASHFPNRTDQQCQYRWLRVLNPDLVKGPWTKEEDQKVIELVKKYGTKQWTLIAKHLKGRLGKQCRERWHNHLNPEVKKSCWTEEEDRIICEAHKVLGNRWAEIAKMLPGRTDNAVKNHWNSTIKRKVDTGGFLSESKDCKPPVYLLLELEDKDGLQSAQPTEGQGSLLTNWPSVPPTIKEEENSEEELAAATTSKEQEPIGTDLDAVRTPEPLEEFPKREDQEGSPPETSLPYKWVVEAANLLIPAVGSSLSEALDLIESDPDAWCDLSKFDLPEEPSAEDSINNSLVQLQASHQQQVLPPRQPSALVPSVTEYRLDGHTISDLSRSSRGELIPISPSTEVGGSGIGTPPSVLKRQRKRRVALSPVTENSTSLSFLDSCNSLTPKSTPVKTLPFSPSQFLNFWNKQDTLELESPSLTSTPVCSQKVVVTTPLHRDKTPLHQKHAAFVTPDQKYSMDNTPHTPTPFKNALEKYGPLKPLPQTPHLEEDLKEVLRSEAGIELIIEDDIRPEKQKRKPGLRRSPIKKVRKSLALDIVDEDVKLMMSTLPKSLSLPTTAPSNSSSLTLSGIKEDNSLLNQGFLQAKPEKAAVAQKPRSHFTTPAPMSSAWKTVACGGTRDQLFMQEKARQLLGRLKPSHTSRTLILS
UniProt P61599, whole entry, looked up: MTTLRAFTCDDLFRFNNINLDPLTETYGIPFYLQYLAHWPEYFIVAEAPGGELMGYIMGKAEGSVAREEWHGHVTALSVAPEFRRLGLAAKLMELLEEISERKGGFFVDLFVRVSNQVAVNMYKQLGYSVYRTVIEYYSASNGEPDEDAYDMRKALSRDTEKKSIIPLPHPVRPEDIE
UniProt Q99747: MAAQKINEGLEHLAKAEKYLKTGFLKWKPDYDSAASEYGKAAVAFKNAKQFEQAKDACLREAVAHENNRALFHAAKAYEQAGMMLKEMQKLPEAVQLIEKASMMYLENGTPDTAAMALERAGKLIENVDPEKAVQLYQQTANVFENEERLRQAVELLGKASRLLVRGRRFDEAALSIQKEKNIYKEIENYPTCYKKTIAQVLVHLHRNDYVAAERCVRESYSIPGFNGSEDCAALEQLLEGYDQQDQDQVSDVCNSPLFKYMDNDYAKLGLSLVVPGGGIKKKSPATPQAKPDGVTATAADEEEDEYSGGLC

[2] = compound: C/C(=N\NC(=O)C1=CC(=CC=C1)S(=O)(=O)N2CCOCC2)/C3=C(C=CC(=C3)Cl)O
Method in brief: as §1

[3] = compound: C1=CC(=CC=C1C2=NC3=C(N2)C=C(C=C3)C(=O)N)OC4=CC=C(C=C4)Cl
Method in brief: as §1

[4] = compound: C1=CC2=C(C=CC(=C2)/C=C\3/C(=O)NC(=NCC4=CC=CS4)S3)N=C1
Method in brief: as §1

[5] = compound: C1=CC=C(C=C1)C2=NC(=C(N2)C3=CC=NC=C3)C4=CC(=C(C=C4)Cl)O
Method in brief: as §1

[6] = compound: C1=CC=C2C(=C1)C3=NNC4=CC=CC(=C43)C2=O
Method in brief: as §1

[7] = compound: C1COCCN1CCN2C3=CC=CC=C3N=C2NC(=O)C4=CC(=CC=C4)[N+](=O)[O-] [IRAK-1-4 Inhibitor I]
Method in brief: as §1

[8] = compound: CC(C)(C)Cn1c(N)nc2ccc(-c3[nH]c(C(C)(C)C)nc3-c3ccc(F)cc3)nc21 [ralimetinib]
Method in brief: as §1

[9] = compound: CC(C)(O)CC(=O)NCCn1ccc2ncnc(Nc3ccc(Oc4cccc(C(F)(F)F)c4)c(Cl)c3)c21
Method in brief: as §1

[10] = compound: CC(C)C1=C2N=C(C=C(N2N=C1)NCC3=CC=CC=C3)NCCCCCCN
Method in brief: as §1

[11] = compound: CC1=C(C2=C(C=C1)C(=O)C3=CC=CC=C3N2CCCN)C
Method in brief: as §1

[12] = compound: CC1=C(C=C(C=C1)NC(=O)C2=CC(=CC=C2)N(C)C)NC(=O)C3=CC=C(C=C3)O
Method in brief: as §1

[13] = compound: C1=CC2=NC=CN=C2C=C1/C=C/3\C(=O)NC(=O)S3
Method in brief: as §1

[14] = compound: C1CCN(C1)C(=O)NC2=CC=CC(=C2)NC3=NC=C(C(=N3)NCCC4=CN=CN4)Br
Method in brief: as §1

[15] = compound: C1CN(CCC1(CC2=CC=C(C=C2)Cl)N)C3=NC=NC4=C3C=CN4
Method in brief: as §1

[16] = compound: C=CC(=O)N1CCC[C@@H](n2nc(-c3ccc(Oc4ccccc4)cc3)c3c(N)ncnc32)C1 [ibrutinib]
Method in brief: as §1

[17] = compound: CC1=C(C(CC(=O)N1)C2=CC=C(C=C2)C(F)(F)F)C(=O)NC3=C(C=C4C(=C3)C=NN4)F
Method in brief: as §1

[18] = compound: CC1=C(C=C(C=C1)NC(=O)C2=CC(=CC=C2)C(C)(C)C#N)NC3=CC4=C(C=C3)N=CN(C4=O)C
Method in brief: as §1

[19] = compound: CC(=O)c1cnc2ccc(-c3cc(Cl)c(O)c(Cl)c3)nc2c1N[C@H]1CC[C@H](CN(C)C)CC1
Method in brief: as §1

[20] = compound: CC1=CC=C(C=C1)SC2=C3C=C(SC3=CN=C2)C(=O)N
Method in brief: as §1

Measured: log2 fold change

MYNN (UniProt Q9NPC7)
inactive: [1] 0.153 | [2] -0.478 | [3] -0.484 | [4] 0.137 | [5] -0.048 | [6] -0.271 | [7] 0.049 | [8] -0.291 | [9] -0.052 | [10] 0.065 | [11] 0.001 | [12] 0.152

NAB2 (UniProt Q15742)
inactive: [1] -0.015 | [2] 0.018 | [3] 0.016 | [4] -0.015 | [13] 0.009 | [6] -0.05 | [14] 0.02 | [15] 0.002 | [16] 0.029 | [10] -0.062 | [17] 0.047 | [11] -0.009 | [18] -0.088

NBEA (UniProt Q8NFP9)
inactive: [1] -0.095 | [2] -0.049 | [3] -0.071 | [4] 0.04 | [13] 0.046 | [5] -0.007 | [6] -0.032 | [14] -0.038 | [15] 0.052 | [7] -0.054 | [16] -0.02 | [19] -0.03 | [8] 0.005 | [9] 0.028 | [10] -0.02 | [17] 0.011 | [11] -0.06 | [18] -0.007 | [12] -0.017 | [20] 0.028

MYL6 isoform 2 (UniProt P60660)
inactive: [1] -0.015 | [2] 0.157 | [3] 0.059 | [4] 0.049 | [5] -0.009 | [6] 0.096 | [14] 0.188 | [15] 0.027 | [7] 0.026 | [19] 0.098 | [8] 0.007 | [9] 0.016 | [10] -0.093 | [17] -0.027 | [11] 0.006 | [18] 0.06 | [12] -0.063 | [20] 0.077

NASP (UniProt P49321)
inactive: [1] -0.017 | [2] 0.011 | [3] -0.001 | [4] 0.003 | [13] 0.009 | [5] 0.007 | [6] 0.022 | [14] 0.023 | [15] 0.003 | [7] -0.009 | [16] -0.007 | [19] -0.002 | [8] -0.033 | [9] 0.004 | [10] -0.019 | [17] -0.016 | [11] 0.012 | [18] -0.007 | [12] -0.017 | [20] -0.01

NCBP2AS2 (UniProt Q69YL0)
inactive: [1] 0.067 | [2] -0.06 | [3] -0.086 | [4] 0.014 | [13] 0.014 | [5] -0.056 | [6] -0.014 | [14] -0.281 | [15] 0.041 | [7] 0.049 | [16] 0.04 | [19] 0.103 | [8] -0.074 | [9] -0.019 | [10] -0.048 | [17] 0.037 | [11] -0.019 | [18] 0.036 | [12] 0 | [20] -0.023

MYL6 (UniProt G3V1V0)
inactive: [1] 0.092 | [2] -0.191 | [3] 0.036 | [4] 0.22 | [5] 0.002 | [6] -0.255 | [14] -0.125 | [15] 0.045 | [7] -0.024 | [19] -0.061 | [8] -0.053 | [9] -0.024 | [10] -0.039 | [17] -0.006 | [11] 0.02 | [18] 0.056 | [12] 0.025 | [20] -0.051

NCBP2 (UniProt P52298)
inactive: [1] -0.006 | [2] 0.052 | [3] 0.034 | [4] 0.017 | [13] 0.003 | [5] -0.019 | [6] -0.002 | [14] 0 | [15] 0.018 | [7] -0.011 | [16] -0.045 | [19] -0.029 | [8] 0.015 | [9] 0.001 | [10] 0.022 | [17] 0.014 | [11] 0.044 | [18] -0.027 | [12] 0.062 | [20] -0.076

MVD (UniProt P53602)
inactive: [1] 0.042 | [2] -0.036 | [3] 0.025 | [4] -0.021 | [13] -0.009 | [5] -0.008 | [6] -0.038 | [14] -0.008 | [15] 0.061 | [16] 0.02 | [19] -0.013 | [8] 0.005 | [9] -0.009 | [10] -0.005 | [17] -0.013 | [11] -0.02 | [18] 0.009 | [12] -0.007 | [20] -0.013

MYBL2 (UniProt P10244)
inactive: [1] 0.02 | [2] 0.014 | [3] -0.011 | [4] 0.035 | [5] 0.005 | [6] 0.078 | [14] -0.013 | [15] -0.036 | [7] 0.009 | [8] 0 | [9] 0.02 | [10] -0.008 | [11] 0.057 | [18] 0.048 | [12] -0.013

NAA20 (UniProt P61599)
inactive: [1] 0.003 | [2] 0.006 | [3] -0.07 | [4] 0.06 | [13] -0.074 | [5] -0.023 | [6] -0.037 | [14] -0.046 | [15] 0.017 | [7] -0.009 | [16] 0.028 | [19] -0.042 | [8] 0.037 | [9] 0.004 | [10] -0.019 | [17] -0.007 | [11] -0.01 | [18] -0.03 | [12] 0.002 | [20] 0.016

2 records picked at random from the list so far, as already listed:
NCBP2AS2 (UniProt Q69YL0)
inactive: [1] 0.067 | [2] -0.06 | [3] -0.086 | [4] 0.014 | [13] 0.014 | [5] -0.056 | [6] -0.014 | [14] -0.281 | [15] 0.041 | [7] 0.049 | [16] 0.04 | [19] 0.103 | [8] -0.074 | [9] -0.019 | [10] -0.048 | [17] 0.037 | [11] -0.019 | [18] 0.036 | [12] 0 | [20] -0.023

MYNN (UniProt Q9NPC7)
inactive: [1] 0.153 | [2] -0.478 | [3] -0.484 | [4] 0.137 | [5] -0.048 | [6] -0.271 | [7] 0.049 | [8] -0.291 | [9] -0.052 | [10] 0.065 | [11] 0.001 | [12] 0.152

(continued)

NAPG (UniProt Q99747)
inactive: [1] -0.009 | [2] -0.018 | [3] 0.017 | [4] -0.022 | [13] -0.001 | [5] 0.003 | [6] 0.022 | [14] -0.004 | [15] 0.003 | [7] 0.011 | [16] 0.016 | [19] -0.008 | [8] -0.017 | [9] -0.037 | [10] 0.028 | [17] 0.023 | [11] -0.029 | [18] -0.005 | [12] -0.035 | [20] -0.022

MYO18B isoform 3 (UniProt Q8IUG5)
inactive: [1] -0.258 | [2] 0.051 | [3] -0.062 | [4] 0.018 | [13] -0.138 | [6] -0.026 | [14] -0.029 | [15] -0.071 | [16] 0.163 | [19] 0.015 | [10] 0.154 | [11] -0.017 | [18] 0.017 | [20] -0.006
